Part of at least one peptide drawing is inferred or uncertain, most often the ends. Some entries repeat one wording, which the source may state once for all of them.
Biological target: T1, IL-7Rα subunit (Homo sapiens, UniProt P16871)
T1 construct: Fc; purchased ACRObiosystems, Inc. ILB-H5258
Test: Competition of synthetic test peptides with phage clones for binding to immobilized IL-7Rα ECD
Conditions: for Competition with Phage Clone SEQ ID NO: 5 (Family 1) for binding to the IL-7Rα subunit: phage clone 5; for Competition with Phage Clone SEQ ID NO: 43 (Family 3A) for binding to the IL-7Rα subunit: phage clone 43; for Competition with Phage Clone SEQ ID NO: 104 (Family 3B) for binding to the IL-7Rα subunit: phage clone 104; for Competition with Phage Clone SEQ ID NO: 458 (Family 2) for binding to the IL-7Rα subunit: phage clone 458

Sequences of proteins named here, by UniProt entry; tags and fusion partners are left off. Residues count along the entry.
UniProt P16871, 21-236: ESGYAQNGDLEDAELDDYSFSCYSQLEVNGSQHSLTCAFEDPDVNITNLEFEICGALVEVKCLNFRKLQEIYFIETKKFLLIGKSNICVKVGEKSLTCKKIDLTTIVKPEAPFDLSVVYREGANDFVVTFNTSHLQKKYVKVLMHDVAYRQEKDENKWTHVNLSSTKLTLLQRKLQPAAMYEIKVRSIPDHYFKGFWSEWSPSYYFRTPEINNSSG

SMILES	Competition with Phage Clone SEQ ID NO: 5 (Family 1) for binding to the IL-7Rα subunit	Competition with Phage Clone SEQ ID NO: 43 (Family 3A) for binding to the IL-7Rα subunit	Competition with Phage Clone SEQ ID NO: 104 (Family 3B) for binding to the IL-7Rα subunit	Competition with Phage Clone SEQ ID NO: 458 (Family 2) for binding to the IL-7Rα subunit	Competition with Phage Clone SEQ ID NO: 429 (N/A) for binding to the IL-7Rα subunit (phage clone 429)
CC[C@H](C)[C@@H]1NC(=O)[C@@H](NC(=O)[C@@H](N)CCC(N)=O)CSSC[C@@H](C(=O)N[C@H](C(=O)O)C(C)C)NC(=O)[C@H](CO)NC(=O)[C@H](CC(C)C)NC(=O)[C@H](CC(C)C)NC(=O)[C@H]([C@@H](C)O)NC(=O)[C@H](CCC(=O)O)NC(=O)[C@H]([C@@H](C)CC)NC(=O)[C@H](CC(=O)O)NC(=O)[C@H](Cc2c[nH]c3ccccc23)NC(=O)[C@H](Cc2c[nH]cn2)NC1=O [compound 5]	+ (IL-7Rα ligand competes with phage binding.)	+ (IL-7Rα ligand competes with phage binding.)	+ (IL-7Rα ligand competes with phage binding.)	+ (IL-7Rα ligand competes with phage binding.)	–
CC[C@H](C)[C@@H]1NC(=O)[C@H](CCC(=O)O)NC(=O)[C@H](C)NC(=O)[C@@H](NC(=O)[C@H](Cc2ccc(O)cc2)NC(=O)[C@@H](N)C(C)C)CSSC[C@@H](C(=O)N[C@@H](CCCNC(=N)N)C(=O)N[C@@H](CCC(N)=O)C(=O)O)NC(=O)[C@H](C(C)C)NC(=O)[C@H](CCCNC(=N)N)NC(=O)[C@H](Cc2ccc(O)cc2)NC(=O)[C@H](CCC(=O)O)NC(=O)CNC1=O [compound 43]	+ (IL-7Rα ligand competes with phage binding.)	+ (IL-7Rα ligand competes with phage binding.)	+ (IL-7Rα ligand competes with phage binding.)	+ (IL-7Rα ligand competes with phage binding.)	–
CSCC[C@H](NC(=O)[C@@H](N)Cc1ccc(O)cc1)C(=O)N[C@@H](C)C(=O)N[C@H]1CSSC[C@@H](C(=O)N[C@@H](CCCNC(=N)N)C(=O)N[C@@H](CC(C)C)C(=O)N[C@@H](CO)C(=O)O)NC(=O)[C@H](CC(C)C)NC(=O)[C@H](CO)NC(=O)[C@H](CC(C)C)NC(=O)CNC(=O)[C@H](CO)NC(=O)[C@H](CO)NC1=O [compound 104]	+ (IL-7Rα ligand competes with phage binding.)	+ (IL-7Rα ligand competes with phage binding.)	+ (IL-7Rα ligand competes with phage binding.)	+ (IL-7Rα ligand competes with phage binding.)	–
CC[C@H](C)[C@H](NC(=O)[C@@H]1CSSC[C@H](NC(=O)[C@@H](N)CCC(N)=O)C(=O)N[C@@H](C(C)C)C(=O)N[C@@H](Cc2c[nH]cn2)C(=O)N[C@@H](Cc2c[nH]c3ccccc23)C(=O)N[C@@H](CC(=O)O)C(=O)N[C@@H](CC(C)C)C(=O)N[C@@H](CC(=O)O)C(=O)N[C@@H]([C@@H](C)O)C(=O)N[C@@H](CC(C)C)C(=O)N[C@@H](Cc2ccccc2)C(=O)NCC(=O)N1)C(=O)N[C@@H](CCCNC(=N)N)C(=O)N[C@@H](CCC(=O)O)C(=O)N[C@@H](CCC(N)=O)C(=O)N[C@@H](CC(C)C)C(=O)N[C@@H](CCC(=O)O)C(=O)N[C@@H](CC(C)C)C(=O)O [compound 146]	+ ^1 (IL-7Rα ligand competes with phage binding.)	+ (IL-7Rα ligand competes with phage binding.)	+ (IL-7Rα ligand competes with phage binding.)	+ (IL-7Rα ligand competes with phage binding.)	0 ^2
CC(C)C[C@@H]1NC(=O)[C@H](CO)NC(=O)CNC(=O)[C@@H]2CCCN2C(=O)[C@H](CC(=O)O)NC(=O)[C@H](CC(C)C)NC(=O)[C@H]([C@@H](C)O)NC(=O)[C@@H](NC(=O)[C@H](Cc2c[nH]c3ccccc23)NC(=O)[C@@H]2CCCN2C(=O)[C@@H](NC(=O)CNC(=O)CN)C(C)C)CSSC[C@@H](C(=O)N[C@@H](C)C(=O)N[C@@H](Cc2c[nH]c3ccccc23)C(=O)N[C@@H](Cc2ccccc2)C(=O)O)NC(=O)[C@H](CCC(N)=O)NC1=O [compound 458]	+ (IL-7Rα ligand competes with phage binding.)	+ (IL-7Rα ligand competes with phage binding.)	+ (IL-7Rα ligand competes with phage binding.)	+ (IL-7Rα ligand competes with phage binding.)	–
